Assay results: the supplement of paper PMC12819154, “High-throughput peptide-centric local stability assay extends protein–ligand identification to membrane proteins, tissues and bacteria” (Nature Structural & Molecular Biology, 2025)
This is one part of the list. Small differences around the control level are noise.

The chains behind the UniProt entries cited, without tags or fusion partners. Where a name states a change or a piece, a line headed by the entry shows the natural chain unless it says otherwise.
UniProt Q9JJJ3: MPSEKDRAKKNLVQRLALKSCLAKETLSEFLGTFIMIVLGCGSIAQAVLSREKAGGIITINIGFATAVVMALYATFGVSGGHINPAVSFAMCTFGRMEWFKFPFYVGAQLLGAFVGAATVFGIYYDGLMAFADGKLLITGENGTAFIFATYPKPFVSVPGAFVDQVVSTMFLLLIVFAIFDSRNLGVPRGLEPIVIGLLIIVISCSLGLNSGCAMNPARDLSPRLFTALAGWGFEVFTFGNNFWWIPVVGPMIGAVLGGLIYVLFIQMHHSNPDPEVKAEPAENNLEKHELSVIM
UniProt Q9JJN6: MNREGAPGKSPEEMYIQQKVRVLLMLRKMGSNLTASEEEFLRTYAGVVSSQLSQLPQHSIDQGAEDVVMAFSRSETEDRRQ
UniProt Q9JKP5: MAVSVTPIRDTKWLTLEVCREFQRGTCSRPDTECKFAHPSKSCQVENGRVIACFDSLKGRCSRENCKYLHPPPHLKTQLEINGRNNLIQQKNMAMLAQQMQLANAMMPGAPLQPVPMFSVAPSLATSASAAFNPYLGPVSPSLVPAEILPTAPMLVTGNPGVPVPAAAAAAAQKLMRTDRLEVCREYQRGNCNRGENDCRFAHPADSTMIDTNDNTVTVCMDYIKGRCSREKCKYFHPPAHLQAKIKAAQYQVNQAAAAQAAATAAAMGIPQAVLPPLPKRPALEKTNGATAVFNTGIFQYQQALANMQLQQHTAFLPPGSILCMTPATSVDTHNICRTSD
UniProt Q9JHE7: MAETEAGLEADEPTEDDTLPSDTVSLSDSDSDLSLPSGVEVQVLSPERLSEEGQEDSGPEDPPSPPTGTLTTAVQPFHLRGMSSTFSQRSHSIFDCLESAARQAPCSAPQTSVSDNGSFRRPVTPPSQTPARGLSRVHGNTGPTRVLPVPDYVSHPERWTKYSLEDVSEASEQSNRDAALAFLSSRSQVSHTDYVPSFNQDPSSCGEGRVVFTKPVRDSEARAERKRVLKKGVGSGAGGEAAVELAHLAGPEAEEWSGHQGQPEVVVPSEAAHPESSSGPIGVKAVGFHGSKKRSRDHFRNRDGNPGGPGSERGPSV
UniProt Q9EST3: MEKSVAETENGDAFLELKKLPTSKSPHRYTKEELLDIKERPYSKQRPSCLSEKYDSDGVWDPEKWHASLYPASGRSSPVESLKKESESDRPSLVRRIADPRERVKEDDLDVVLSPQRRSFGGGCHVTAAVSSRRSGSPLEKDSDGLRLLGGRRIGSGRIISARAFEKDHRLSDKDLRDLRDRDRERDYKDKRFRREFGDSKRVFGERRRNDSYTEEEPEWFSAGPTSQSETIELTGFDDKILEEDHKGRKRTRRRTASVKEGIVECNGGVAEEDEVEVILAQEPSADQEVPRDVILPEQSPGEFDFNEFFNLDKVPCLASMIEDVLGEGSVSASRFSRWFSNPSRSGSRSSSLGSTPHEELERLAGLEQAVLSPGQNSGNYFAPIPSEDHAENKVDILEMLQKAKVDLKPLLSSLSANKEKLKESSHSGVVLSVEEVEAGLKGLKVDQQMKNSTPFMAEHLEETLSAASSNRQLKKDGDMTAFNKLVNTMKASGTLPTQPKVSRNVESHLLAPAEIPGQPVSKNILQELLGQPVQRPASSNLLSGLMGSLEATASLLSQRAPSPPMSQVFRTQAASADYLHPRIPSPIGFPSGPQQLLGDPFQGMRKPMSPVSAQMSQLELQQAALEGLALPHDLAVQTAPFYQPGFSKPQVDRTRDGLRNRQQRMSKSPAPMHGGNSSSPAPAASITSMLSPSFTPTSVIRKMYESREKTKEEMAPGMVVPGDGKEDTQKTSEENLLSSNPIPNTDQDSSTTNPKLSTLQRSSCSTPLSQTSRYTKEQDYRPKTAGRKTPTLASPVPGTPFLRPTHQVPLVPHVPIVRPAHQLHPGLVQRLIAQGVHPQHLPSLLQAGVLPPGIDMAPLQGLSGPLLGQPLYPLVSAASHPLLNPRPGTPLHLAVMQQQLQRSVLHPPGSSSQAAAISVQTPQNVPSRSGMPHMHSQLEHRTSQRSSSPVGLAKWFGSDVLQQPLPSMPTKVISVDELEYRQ
UniProt Q9JMC3: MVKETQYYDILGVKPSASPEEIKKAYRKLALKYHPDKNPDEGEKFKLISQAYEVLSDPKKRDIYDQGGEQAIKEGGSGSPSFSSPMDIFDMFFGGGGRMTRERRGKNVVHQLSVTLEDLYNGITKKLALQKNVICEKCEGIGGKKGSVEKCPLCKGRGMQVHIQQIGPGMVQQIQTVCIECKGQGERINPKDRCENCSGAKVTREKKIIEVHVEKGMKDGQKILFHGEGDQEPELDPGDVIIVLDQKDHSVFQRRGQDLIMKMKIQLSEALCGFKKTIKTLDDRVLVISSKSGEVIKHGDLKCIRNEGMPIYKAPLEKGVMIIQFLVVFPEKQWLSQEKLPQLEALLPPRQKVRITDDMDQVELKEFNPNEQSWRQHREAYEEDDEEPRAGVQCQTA
UniProt Q9JLQ0, whole entry: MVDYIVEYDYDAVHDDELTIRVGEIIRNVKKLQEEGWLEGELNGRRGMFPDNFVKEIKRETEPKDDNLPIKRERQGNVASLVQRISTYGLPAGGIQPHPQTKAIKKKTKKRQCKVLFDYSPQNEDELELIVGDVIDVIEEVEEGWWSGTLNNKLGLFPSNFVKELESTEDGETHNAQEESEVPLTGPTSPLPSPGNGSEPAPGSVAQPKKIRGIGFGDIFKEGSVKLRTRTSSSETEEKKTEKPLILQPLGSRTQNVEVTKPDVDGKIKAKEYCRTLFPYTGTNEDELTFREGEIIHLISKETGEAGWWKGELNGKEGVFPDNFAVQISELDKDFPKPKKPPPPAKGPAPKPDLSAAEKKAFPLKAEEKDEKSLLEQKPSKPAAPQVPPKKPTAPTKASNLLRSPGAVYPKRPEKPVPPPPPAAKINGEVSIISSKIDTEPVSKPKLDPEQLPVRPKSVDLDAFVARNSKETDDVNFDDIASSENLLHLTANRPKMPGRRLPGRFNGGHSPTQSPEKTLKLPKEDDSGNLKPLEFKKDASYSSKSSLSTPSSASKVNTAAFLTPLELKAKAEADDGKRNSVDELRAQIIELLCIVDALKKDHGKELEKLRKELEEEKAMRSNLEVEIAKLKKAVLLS
UniProt Q9QUI0, whole entry: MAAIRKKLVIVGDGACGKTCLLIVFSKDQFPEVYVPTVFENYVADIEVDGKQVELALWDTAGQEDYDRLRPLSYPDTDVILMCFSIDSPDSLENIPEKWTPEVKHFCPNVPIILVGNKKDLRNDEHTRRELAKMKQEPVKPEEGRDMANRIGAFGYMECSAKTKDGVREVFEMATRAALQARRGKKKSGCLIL
UniProt Q9JHK5: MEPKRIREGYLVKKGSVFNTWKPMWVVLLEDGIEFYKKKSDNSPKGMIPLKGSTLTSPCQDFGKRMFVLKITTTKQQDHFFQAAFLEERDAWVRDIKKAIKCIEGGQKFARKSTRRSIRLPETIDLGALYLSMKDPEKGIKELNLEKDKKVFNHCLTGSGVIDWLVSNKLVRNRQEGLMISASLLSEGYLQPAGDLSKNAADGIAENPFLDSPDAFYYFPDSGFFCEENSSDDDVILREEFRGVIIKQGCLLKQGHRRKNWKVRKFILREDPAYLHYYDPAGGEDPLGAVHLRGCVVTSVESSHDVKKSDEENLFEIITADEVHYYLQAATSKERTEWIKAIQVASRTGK
UniProt Q9JII1: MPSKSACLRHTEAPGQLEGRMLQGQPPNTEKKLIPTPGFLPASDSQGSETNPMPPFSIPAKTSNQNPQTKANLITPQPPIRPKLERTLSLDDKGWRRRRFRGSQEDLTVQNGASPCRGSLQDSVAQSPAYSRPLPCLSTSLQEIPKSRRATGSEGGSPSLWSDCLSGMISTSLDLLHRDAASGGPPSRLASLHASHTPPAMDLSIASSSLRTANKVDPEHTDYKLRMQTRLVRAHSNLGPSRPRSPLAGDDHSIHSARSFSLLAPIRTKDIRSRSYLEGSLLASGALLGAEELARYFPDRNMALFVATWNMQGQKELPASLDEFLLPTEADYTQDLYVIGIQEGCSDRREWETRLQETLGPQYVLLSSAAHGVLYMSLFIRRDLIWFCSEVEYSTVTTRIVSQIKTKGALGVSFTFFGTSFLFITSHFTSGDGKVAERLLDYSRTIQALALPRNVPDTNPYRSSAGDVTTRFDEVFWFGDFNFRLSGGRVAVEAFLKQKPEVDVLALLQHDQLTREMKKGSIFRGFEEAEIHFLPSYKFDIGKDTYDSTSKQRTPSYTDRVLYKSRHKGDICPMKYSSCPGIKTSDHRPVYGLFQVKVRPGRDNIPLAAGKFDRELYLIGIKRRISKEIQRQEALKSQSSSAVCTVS
UniProt Q9JHC9: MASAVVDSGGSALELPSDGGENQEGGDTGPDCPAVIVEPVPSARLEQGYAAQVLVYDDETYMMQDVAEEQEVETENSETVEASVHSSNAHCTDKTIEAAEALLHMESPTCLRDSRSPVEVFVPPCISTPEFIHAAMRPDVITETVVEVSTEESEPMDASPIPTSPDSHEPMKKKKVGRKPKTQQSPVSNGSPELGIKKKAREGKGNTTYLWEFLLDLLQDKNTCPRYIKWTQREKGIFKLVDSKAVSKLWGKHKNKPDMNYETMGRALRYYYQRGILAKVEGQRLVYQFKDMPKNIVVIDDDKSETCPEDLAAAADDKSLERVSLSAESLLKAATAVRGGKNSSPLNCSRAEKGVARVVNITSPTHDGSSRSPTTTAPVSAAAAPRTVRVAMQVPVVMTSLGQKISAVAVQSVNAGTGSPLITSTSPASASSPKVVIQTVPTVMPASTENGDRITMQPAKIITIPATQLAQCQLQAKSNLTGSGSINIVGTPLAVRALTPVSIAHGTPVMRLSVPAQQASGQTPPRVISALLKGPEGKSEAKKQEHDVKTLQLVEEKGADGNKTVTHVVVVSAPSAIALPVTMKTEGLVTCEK
UniProt Q9JJA9: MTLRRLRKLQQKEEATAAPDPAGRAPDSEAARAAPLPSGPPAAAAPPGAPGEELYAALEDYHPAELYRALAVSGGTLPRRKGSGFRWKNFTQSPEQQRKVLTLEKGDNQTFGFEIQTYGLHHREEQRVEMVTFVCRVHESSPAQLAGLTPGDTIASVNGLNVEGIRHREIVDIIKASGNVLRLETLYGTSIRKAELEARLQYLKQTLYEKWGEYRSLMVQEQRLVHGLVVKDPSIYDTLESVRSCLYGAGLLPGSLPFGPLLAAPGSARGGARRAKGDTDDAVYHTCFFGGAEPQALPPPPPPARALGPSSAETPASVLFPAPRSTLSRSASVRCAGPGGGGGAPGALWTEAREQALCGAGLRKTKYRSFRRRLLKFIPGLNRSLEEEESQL
UniProt Q9JLT4, whole entry: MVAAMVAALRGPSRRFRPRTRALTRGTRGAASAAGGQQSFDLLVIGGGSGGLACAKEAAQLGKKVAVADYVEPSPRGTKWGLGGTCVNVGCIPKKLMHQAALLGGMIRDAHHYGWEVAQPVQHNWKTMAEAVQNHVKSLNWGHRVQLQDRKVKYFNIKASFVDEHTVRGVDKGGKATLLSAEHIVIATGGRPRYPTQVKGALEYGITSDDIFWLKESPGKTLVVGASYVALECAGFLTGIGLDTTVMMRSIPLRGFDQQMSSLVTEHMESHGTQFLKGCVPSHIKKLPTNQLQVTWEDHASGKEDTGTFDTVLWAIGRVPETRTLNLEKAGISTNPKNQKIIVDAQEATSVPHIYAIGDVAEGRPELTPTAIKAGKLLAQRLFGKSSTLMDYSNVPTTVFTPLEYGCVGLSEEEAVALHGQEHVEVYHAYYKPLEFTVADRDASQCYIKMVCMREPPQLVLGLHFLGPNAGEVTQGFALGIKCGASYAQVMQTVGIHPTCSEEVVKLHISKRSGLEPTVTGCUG
UniProt Q9JJW0: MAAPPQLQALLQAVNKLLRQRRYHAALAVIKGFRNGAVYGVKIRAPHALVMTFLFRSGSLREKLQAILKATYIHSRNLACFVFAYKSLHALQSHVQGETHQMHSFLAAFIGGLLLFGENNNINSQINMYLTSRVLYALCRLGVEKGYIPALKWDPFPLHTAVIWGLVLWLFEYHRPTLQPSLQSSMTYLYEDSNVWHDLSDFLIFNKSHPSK
UniProt Q9QUT0: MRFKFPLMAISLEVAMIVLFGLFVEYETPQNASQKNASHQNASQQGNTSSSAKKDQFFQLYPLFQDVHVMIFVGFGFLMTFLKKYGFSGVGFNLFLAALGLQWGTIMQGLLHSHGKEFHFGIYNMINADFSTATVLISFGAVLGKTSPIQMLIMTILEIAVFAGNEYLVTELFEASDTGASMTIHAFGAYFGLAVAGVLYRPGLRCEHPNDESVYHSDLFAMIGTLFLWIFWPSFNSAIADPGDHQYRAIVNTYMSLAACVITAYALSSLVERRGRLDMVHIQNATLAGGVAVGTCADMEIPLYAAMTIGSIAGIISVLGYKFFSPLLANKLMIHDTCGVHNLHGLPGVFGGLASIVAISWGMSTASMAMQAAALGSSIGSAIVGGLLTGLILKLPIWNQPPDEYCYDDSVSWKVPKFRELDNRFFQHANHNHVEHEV

Compound: CN[C@@H]1C[C@H]2O[C@@](C)([C@@H]1OC)n1c3ccccc3c3c4c(c5c6ccccc6n2c5c31)C(=O)NC4 [staurosporine]
Assay: log2 fold change of tryptic peptide abundance, ligand vs vehicle (limited proteolysis) (log2 ratio); higher = more trypsin-susceptible (destabilized)
Details: ligand concentration: 20 uM; sample: mouse liver crude lysate; replicate design: treated separately

Target	log2 fold change
UniProt Q9JJ06 (peptide sequence: EINQVNRK, peptide start residue: 346)	0.193
UniProt Q9JJJ3 (peptide sequence: AEPAENNLEKHELSVIM, peptide start residue: 279)	-0.156
UniProt Q9JJN6 (peptide sequence: VLLMLRK, peptide start residue: 22)	0.341
UniProt Q9JJK2 (peptide sequence: SLDYVKR, peptide start residue: 129)	0.293
UniProt Q9JKP5 (peptide sequence: FAHPSKSCQVENGR, peptide start residue: 36)	-0.154
UniProt Q9ES56 (peptide sequence: FGRPRLTSNEK, peptide start residue: 98)	0.32
UniProt Q9JL61 (peptide sequence: SLITPISGTLK, peptide start residue: 339)	0.275
UniProt Q9JK42 (peptide sequence: HIGSIDPNCSVSDVVKDAYDMAK, peptide start residue: 187)	-0.163
UniProt Q9QXB9 (peptide sequence: KPNSVVISCGMK, peptide start residue: 262)	0.276
UniProt Q9JHE7 (peptide sequence: DGNPGGPGSER, peptide start residue: 303)	-0.244
UniProt Q9EST3 (peptide sequence: SSSLGSTPHEELER, peptide start residue: 350)	0.539
UniProt Q9JMC3 (peptide sequence: ITDDMDQVELK, peptide start residue: 355)	0.159
UniProt Q9JIY8 (peptide sequence: GQTVGMVAARPVKDPLLQK, peptide start residue: 116)	-0.15
UniProt Q9JHI0 (peptide sequence: AALHQAFK, peptide start residue: 128)	-0.605
UniProt Q9JM05 (peptide sequence: PLDPLALHSMPR, peptide start residue: 80)	0.612
UniProt Q9JHW9 (peptide sequence: YFAGWADK, peptide start residue: 150)	0.218
UniProt Q9JMG3 (peptide sequence: FLNDSEQVAR, peptide start residue: 108)	0.132
UniProt Q9JKV5 (peptide sequence: AQTEWSAGTWR, peptide start residue: 186)	0.162

Rewritten in markdown: entries from further up.

| Target | log2 fold change |
| --- | --- |
| UniProt Q9JHI0 (peptide sequence: AALHQAFK, peptide start residue: 128) | -0.605 |
| UniProt Q9JM05 (peptide sequence: PLDPLALHSMPR, peptide start residue: 80) | 0.612 |
| UniProt Q9JHW9 (peptide sequence: YFAGWADK, peptide start residue: 150) | 0.218 |

More records follow:

Target	log2 fold change
UniProt Q9JLQ0 (peptide sequence: ETGEAGWWKGELNGK, peptide start residue: 302)	0.256
UniProt Q9QUI0 (peptide sequence: MKQEPVKPEEGR, peptide start residue: 134)	0.15
UniProt Q9JJZ2 (peptide sequence: DVNVAIAAIK, peptide start residue: 327)	-0.112
UniProt Q9JHK5 (peptide sequence: EDPAYLHYYDPAGGEDPLGAVHLR, peptide start residue: 270)	0.0655
UniProt Q9JKV1 (peptide sequence: RLFFWMQEPK, peptide start residue: 104)	-0.379
UniProt Q9JII1 (peptide sequence: TANKVDPEHTDYK, peptide start residue: 212)	0.294
UniProt Q9JHC9 (peptide sequence: VVNITSPTHDGSSR, peptide start residue: 358)	-0.181
UniProt Q9JL26 (peptide sequence: VEELEEK, peptide start residue: 479)	0.286
UniProt Q9JM73 (peptide sequence: IKMEFIDNK, peptide start residue: 142)	0.0854
UniProt Q9JJA9 (peptide sequence: ALAVSGGTLPR, peptide start residue: 69)	0.0145
UniProt Q9JLT4 (peptide sequence: GCVPSHIK, peptide start residue: 278)	-0.203
UniProt Q9JL35 (peptide sequence: EGHHEEGGKEDLHEEDGK, peptide start residue: 336)	-0.472
UniProt Q9ET47 (peptide sequence: QKLEEIQR, peptide start residue: 830)	0.0544
UniProt Q9QX47 (peptide sequence: EGNKEPILVDFK, peptide start residue: 2347)	-0.299
UniProt Q9JHI2 (peptide sequence: NPPDYHQFK, peptide start residue: 491)	0.468
UniProt Q9JJW0 (peptide sequence: YHAALAVIK, peptide start residue: 23)	0.162
UniProt Q9JIF7 (peptide sequence: LKEAELLEPLMPAIR, peptide start residue: 127)	-0.342
UniProt Q9QUT0 (peptide sequence: FFQHANHNHVEHEV, peptide start residue: 425)	0.182
